Measurements taken from publication PMC10940101.
Results are given in words; binding and its absence hold for the method and conditions named. In cells and extracts the contact can be indirect. A yes stands for co-enrichment or nearness to the bait. Other partners may have been found.

Chains of the proteins cited; added tags and fusions are not shown. Lines headed by an entry give the natural chain unless they say otherwise; changes in a name come on top.
UniProt Q13535: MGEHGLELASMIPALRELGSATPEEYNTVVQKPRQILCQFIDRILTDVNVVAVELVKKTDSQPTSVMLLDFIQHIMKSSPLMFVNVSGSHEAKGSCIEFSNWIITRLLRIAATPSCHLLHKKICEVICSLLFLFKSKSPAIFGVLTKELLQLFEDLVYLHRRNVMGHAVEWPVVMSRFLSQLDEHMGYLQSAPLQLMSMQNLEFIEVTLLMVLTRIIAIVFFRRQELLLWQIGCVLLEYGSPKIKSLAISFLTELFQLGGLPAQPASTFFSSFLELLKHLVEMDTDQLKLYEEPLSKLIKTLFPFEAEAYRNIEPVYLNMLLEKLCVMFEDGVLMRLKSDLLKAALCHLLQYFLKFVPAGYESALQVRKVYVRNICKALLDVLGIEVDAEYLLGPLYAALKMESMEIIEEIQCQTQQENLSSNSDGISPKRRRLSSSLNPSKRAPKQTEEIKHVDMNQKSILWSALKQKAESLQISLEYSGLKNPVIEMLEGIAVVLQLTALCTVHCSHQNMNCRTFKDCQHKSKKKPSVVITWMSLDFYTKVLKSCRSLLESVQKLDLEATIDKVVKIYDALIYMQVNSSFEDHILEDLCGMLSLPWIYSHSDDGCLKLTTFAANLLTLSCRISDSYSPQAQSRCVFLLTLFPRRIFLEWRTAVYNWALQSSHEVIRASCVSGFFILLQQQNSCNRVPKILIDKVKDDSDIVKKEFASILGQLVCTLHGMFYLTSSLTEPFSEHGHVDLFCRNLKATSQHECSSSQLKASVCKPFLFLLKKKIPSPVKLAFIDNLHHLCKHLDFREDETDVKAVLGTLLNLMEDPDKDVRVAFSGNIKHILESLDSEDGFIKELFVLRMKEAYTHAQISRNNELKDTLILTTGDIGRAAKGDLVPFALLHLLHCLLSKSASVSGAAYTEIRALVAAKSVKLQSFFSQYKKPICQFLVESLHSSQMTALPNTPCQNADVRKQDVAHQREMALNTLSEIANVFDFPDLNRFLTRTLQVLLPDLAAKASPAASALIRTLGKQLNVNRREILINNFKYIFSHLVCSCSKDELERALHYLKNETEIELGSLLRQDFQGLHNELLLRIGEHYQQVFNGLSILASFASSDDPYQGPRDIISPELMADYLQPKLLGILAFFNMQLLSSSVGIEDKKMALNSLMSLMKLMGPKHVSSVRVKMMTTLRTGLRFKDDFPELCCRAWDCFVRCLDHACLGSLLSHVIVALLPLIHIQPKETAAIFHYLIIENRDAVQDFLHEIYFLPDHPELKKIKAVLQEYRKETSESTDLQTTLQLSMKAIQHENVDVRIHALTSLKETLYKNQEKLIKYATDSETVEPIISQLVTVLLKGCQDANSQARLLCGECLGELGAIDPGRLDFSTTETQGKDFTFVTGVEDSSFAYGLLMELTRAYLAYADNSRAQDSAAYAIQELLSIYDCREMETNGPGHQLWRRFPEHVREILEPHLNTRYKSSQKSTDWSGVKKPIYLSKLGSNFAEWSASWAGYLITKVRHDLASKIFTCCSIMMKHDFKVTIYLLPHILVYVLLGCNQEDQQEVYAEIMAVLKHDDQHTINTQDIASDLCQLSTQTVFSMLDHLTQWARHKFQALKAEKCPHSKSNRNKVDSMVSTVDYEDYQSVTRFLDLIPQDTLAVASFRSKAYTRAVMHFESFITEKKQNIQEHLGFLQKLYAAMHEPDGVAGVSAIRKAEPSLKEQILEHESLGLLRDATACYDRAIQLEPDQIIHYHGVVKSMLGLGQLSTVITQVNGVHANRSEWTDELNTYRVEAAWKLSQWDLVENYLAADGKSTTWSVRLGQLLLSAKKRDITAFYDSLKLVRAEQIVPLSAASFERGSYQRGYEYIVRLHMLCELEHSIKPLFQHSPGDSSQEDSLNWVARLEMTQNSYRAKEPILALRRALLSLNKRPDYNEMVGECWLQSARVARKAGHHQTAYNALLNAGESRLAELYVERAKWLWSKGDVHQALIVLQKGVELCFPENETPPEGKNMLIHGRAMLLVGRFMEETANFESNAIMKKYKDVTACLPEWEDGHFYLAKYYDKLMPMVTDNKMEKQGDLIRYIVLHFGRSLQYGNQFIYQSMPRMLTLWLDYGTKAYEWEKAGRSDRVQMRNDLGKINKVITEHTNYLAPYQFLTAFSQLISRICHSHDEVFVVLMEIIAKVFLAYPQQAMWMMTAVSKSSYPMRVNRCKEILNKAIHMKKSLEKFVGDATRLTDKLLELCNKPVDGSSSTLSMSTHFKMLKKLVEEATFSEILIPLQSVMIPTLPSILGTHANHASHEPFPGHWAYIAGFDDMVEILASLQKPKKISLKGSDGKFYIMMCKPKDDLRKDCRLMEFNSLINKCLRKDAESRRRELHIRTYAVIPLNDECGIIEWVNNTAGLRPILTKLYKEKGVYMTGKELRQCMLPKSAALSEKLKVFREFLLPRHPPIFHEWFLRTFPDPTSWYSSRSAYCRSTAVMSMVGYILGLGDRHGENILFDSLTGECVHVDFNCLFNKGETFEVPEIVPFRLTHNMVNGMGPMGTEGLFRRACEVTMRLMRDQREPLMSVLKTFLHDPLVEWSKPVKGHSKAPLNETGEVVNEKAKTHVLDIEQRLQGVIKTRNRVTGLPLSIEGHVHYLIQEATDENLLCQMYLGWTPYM

Biological target: Ataxia-telangiectasia–mutated and Rad3-related protein (ATR) (human (endogenous in NP cells)) (UniProt Q13535)
Assay: affinity purification with mass spectrometry; endogenous co-IP of ATR from normal and senescent NP cells, IgG isotype as control, n = 3 biological replicates

B1: tripartite motif–containing 56 (TRIM56) (protein, UniProt Q9BRZ2 1-755)
chain: MVSHGSSPSLLEALSSDFLACKICLEQLRAPKTLPCLHTYCQDCLAQLADGGRVRCPECRETVPVPPEGVASFKTNFFVNGLLDLVKARACGDLRAGKPACALCPLVGGTSTGGPATARCLDCADDLCQACADGHRCTRQTHTHRVVDLVGYRAGWYDEEARERQAAQCPQHPGEALRFLCQPCSQLLCRECRLDPHLDHPCLPLAEAVRARRPGLEGLLAGVDNNLVELEAARRVEKEALARLREQAARVGTQVEEAAEGVLRALLAQKQEVLGQLRAHVEAAEEAARERLAELEGREQVARAAAAFARRVLSLGREAEILSLEGAIAQRLRQLQGCPWAPGPAPCLLPQLELHPGLLDKNCHLLRLSFEEQQPQKDGGKDGAGTQGGEESQSRREDEPKTERQGGVQPQAGDGAQTPKEEKAQTTREEGAQTLEEDRAQTPHEDGGPQPHRGGRPNKKKKFKGRLKSISREPSPALGPNLDGSGLLPRPIFYCSFPTRMPGDKRSPRITGLCPFGPREILVADEQNRALKRFSLNGDYKGTVPVPEGCSPCSVAALQSAVAFSASARLYLINPNGEVQWRRALSLSQASHAVAALPSGDRVAVSVAGHVEVYNMEGSLATRFIPGGKASRGLRALVFLTTSPQGHFVGSDWQQNSVVICDGLGQVVGEYKGPGLHGCQPGSVSVDKKGYIFLTLREVNKVVILDPKGSLLGDFLTAYHGLEKPRVTTMVDGRYLVVSLSNGTIHIFRVRSPDS
B1 was tested, and the binding was “binds”.
